Consider 18 targets from the supplement of paper PMC10849652.

Sequences of proteins named here, by UniProt entry; tags and fusion partners are left off. A change or cut given only in a name is not applied to a line headed by its entry.
UniProt P0CG12: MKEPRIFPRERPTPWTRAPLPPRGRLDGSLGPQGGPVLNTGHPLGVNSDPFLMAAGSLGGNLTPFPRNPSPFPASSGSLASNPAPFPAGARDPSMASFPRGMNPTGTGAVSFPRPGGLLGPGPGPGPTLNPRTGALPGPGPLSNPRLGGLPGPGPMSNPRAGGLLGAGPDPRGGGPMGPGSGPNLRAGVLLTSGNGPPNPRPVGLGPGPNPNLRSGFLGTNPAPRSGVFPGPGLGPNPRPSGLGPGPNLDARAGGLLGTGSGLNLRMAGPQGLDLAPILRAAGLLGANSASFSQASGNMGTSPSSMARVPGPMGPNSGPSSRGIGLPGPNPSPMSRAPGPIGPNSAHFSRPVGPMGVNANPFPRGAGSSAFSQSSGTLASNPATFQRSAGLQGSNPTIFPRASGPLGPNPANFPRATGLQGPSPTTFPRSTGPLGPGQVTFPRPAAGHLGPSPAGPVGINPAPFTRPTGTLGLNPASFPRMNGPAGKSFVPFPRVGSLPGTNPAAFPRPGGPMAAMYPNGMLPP
UniProt Q9Y2R4: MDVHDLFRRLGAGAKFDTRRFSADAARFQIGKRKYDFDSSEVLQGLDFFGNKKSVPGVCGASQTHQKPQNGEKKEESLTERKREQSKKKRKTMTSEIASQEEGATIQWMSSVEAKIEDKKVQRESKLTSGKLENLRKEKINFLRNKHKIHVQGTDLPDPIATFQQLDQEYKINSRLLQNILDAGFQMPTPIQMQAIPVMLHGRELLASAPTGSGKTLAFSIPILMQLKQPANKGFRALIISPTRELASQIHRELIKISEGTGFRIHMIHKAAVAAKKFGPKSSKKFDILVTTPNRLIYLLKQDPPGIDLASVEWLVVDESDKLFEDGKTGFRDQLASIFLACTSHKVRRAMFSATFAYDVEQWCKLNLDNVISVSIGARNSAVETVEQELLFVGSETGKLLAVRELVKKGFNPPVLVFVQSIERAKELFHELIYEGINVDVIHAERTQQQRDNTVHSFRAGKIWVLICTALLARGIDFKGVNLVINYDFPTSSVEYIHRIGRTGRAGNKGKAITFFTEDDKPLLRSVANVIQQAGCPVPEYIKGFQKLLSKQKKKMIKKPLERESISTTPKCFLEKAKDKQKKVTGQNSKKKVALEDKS
UniProt P80370: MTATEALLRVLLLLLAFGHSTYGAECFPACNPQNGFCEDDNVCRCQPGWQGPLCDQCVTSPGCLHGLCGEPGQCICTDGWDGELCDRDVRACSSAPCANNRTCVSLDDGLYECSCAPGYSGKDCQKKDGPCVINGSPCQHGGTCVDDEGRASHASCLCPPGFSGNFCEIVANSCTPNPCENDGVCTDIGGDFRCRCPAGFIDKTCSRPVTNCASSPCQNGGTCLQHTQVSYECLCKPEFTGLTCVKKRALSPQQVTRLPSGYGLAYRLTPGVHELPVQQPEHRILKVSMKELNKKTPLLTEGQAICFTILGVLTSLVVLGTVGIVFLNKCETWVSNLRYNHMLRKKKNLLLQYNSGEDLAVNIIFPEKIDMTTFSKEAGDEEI
UniProt Q6E0U4: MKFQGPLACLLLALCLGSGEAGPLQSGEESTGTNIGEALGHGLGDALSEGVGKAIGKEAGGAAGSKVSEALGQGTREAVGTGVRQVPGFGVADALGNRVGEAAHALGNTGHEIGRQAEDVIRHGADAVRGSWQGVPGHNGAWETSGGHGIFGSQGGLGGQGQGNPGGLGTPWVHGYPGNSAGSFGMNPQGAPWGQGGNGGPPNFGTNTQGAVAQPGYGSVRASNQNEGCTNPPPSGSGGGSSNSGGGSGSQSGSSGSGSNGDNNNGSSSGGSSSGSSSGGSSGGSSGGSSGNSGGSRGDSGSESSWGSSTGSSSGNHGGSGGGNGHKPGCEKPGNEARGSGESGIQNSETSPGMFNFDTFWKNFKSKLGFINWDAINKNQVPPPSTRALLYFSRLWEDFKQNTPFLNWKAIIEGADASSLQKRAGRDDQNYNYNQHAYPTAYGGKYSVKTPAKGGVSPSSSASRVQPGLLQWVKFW
UniProt Q9H5Z1: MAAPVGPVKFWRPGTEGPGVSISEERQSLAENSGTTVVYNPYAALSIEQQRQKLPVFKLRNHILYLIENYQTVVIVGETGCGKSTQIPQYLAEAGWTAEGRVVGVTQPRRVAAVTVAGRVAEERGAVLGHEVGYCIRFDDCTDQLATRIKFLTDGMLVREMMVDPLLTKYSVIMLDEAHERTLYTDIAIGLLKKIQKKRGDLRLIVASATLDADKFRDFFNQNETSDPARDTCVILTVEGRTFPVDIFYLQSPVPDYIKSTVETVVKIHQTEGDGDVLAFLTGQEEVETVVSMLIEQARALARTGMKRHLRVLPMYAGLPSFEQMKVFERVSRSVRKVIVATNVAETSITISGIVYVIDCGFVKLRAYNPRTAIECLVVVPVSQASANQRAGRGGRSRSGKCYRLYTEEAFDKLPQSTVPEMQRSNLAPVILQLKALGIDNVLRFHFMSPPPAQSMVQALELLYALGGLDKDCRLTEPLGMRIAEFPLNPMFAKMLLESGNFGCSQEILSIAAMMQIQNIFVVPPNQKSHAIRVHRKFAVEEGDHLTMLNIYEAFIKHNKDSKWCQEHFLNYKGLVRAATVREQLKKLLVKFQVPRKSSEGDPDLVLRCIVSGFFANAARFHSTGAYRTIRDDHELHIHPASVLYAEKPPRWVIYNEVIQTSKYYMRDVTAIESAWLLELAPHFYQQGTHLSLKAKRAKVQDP
UniProt Q9UHL0: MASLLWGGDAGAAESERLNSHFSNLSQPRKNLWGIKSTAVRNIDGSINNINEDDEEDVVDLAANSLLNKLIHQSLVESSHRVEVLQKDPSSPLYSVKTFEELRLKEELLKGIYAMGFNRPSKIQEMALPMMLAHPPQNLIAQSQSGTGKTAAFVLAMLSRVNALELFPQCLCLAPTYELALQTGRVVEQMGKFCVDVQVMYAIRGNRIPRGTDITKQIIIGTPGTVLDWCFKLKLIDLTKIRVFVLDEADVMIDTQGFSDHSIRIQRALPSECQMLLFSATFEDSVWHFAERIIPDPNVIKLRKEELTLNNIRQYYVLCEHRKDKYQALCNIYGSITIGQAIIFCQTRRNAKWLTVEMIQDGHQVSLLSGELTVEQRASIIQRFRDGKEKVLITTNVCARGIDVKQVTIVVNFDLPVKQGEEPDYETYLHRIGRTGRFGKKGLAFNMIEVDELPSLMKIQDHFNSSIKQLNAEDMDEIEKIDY
UniProt Q8TCE6, whole entry, looked up: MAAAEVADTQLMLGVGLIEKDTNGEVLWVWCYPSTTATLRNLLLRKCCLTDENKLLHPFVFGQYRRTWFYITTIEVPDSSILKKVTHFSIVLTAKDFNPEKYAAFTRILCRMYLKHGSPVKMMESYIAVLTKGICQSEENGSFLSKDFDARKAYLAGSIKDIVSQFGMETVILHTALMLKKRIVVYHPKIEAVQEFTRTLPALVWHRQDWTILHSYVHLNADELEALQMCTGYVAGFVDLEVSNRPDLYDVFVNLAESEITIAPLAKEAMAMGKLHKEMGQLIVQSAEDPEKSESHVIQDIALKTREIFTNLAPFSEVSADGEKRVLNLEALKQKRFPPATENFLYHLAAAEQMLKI
UniProt Q7L5Y6, whole entry, looked up: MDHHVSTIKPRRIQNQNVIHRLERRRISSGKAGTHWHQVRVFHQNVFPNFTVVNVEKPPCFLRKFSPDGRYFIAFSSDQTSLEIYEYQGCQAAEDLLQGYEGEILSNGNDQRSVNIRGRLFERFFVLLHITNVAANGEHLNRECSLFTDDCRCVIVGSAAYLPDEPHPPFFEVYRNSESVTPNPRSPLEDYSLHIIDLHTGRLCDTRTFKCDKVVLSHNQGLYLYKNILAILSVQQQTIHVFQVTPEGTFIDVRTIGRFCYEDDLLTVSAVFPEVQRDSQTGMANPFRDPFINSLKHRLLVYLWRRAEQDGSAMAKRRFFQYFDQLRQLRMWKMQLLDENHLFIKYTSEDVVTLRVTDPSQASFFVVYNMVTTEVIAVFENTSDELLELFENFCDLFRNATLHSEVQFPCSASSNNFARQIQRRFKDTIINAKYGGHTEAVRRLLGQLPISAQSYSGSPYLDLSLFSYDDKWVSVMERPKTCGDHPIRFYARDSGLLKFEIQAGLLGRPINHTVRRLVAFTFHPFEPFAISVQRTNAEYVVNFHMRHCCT
UniProt Q13206, whole entry, looked up: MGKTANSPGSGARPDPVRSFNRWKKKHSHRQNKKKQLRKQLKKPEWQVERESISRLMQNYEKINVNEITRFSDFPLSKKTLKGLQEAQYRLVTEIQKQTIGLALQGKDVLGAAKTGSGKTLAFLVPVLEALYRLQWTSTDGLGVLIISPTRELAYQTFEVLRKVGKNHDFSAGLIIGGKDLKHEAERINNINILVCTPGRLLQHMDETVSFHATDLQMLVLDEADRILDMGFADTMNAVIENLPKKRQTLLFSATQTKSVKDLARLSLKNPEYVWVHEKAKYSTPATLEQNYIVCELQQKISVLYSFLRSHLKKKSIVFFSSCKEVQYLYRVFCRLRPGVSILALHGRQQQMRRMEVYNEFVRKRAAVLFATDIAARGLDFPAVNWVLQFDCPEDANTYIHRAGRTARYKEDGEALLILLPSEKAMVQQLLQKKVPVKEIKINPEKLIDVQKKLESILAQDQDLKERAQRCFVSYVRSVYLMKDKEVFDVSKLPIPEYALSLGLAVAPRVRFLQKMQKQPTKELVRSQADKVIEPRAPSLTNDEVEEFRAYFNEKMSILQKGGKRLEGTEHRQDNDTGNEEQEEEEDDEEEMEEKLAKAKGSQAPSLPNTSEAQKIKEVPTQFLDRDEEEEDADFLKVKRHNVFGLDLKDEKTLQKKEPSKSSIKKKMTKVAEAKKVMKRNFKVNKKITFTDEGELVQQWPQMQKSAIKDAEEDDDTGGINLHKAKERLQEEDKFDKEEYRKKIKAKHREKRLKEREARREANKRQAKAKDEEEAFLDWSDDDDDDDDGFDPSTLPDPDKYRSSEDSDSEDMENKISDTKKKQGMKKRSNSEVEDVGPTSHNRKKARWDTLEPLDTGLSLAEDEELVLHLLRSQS
UniProt O75398: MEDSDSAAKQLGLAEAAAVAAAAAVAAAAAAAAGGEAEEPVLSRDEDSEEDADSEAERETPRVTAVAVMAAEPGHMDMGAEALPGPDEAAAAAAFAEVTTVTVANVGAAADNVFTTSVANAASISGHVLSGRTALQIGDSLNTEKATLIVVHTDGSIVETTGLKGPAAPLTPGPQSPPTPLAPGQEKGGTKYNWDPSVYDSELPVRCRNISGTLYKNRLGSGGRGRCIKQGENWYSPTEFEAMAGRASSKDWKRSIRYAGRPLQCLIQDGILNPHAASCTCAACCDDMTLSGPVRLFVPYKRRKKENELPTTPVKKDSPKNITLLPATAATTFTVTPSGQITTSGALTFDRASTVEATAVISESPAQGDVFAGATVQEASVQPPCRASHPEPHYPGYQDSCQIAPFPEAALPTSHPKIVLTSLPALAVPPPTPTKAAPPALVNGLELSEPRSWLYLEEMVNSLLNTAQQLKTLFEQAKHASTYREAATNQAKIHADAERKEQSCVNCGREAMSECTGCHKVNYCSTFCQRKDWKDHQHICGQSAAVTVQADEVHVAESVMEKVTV
UniProt O94760: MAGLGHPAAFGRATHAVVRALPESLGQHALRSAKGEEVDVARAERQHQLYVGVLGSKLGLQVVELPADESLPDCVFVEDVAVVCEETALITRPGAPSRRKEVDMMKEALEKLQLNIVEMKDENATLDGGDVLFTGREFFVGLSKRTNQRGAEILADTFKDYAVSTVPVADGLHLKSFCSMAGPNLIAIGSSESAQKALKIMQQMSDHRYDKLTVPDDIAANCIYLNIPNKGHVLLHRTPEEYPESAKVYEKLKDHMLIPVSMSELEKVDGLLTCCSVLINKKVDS
UniProt Q9Y222: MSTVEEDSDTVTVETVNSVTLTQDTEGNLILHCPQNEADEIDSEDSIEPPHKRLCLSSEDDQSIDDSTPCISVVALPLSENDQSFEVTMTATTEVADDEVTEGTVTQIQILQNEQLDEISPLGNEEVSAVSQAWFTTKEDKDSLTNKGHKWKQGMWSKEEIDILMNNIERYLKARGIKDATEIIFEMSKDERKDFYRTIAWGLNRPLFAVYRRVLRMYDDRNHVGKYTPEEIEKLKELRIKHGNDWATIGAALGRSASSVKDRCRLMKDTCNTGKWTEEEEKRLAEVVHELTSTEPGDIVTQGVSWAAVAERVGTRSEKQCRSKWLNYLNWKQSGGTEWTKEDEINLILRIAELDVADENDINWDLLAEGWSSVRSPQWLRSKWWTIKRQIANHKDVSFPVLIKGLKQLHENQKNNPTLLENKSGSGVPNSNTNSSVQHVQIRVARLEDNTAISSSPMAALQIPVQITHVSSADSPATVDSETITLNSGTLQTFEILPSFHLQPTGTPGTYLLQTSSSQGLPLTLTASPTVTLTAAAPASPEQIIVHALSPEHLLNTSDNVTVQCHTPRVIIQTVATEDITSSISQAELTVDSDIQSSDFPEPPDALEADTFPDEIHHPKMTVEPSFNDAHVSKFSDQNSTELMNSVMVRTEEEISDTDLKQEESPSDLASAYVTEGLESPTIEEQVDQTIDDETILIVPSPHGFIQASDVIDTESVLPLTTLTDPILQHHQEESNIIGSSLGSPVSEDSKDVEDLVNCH

This is one part of the list.

What all share (assay): log2 fold change, soluble protein after heating vs DMSO (PISA); higher = thermal stabilisation; K562 cells, 10 uM, 30 min; active = over 0.2 and 3.5 SD of the protein, either way, in both replicates (recomputed)
Compound in test [1]: C[C@@H](Oc1cc(-c2cnn(C3CCNCC3)c2)cnc1N)c1c(Cl)ccc(F)c1Cl [crizotinib]
The method, boiled down: (§1)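 Soluble protein was defined as the supernatant after 21,000xg for 90 min. It came from K562 cells at 2×10^6 cells/mL given 10 μM compound for 30 min, heated in aliquots for 3 min across 48°C-58°C, pooled, and extracted in PBS with 0.5% NP-40 at 4°C, and was quantified by TMTpro 16plex LC-MS/MS with equalised channel sums. Thermal stability against control samples, from duplicates, is reported as log2 fold change.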

Compound in test [2]: Cc1cc(Nc2cc(CN3CCOCC3)c3nc(C)c(Cc4ccc(Cl)cc4F)n3n2)n[nH]1 [gandotinib]
The procedure, abridged: as §1

Compound in test [3]: Cc1cc(SCc2sc(-c3ccc(C(F)(F)F)cc3)nc2C)ccc1OCC(=O)O
The method, boiled down: as §1

Compound in test [4]: Cc1ccc(-n2nc(C(C)(C)C)cc2NC(=O)Nc2ccc(OCCN3CCOCC3)c3ccccc23)cc1 [doramapimod]
The procedure, abridged: as §1

Compound in test [5]: Cc1ccc(C(=O)N(CCCN)[C@@H](c2nc3cc(Cl)ccc3c(=O)n2Cc2ccccc2)C(C)C)cc1 [ispinesib]
The method, boiled down:
as §1

Compound in test [6]: Cc1ccc(NC(=O)c2ccc(CN3CC[C@H](N(C)C)C3)c(C(F)(F)F)c2)cc1Nc1nccc(-c2cncnc2)n1 [bafetinib]
The procedure, abridged: as §1

Compound in test [7]: Cc1cccc(CC(=O)N2CCc3c2ccc(-c2cn(C)c4ncnc(N)c24)c3F)n1
The method, boiled down:
as §1

Compound in test [8]: Cc1cn(-c2cc(NC(=O)c3ccc(C)c(Nc4nccc(-c5cccnc5)n4)c3)cc(C(F)(F)F)c2)cn1 [nilotinib]
The method, boiled down:
as §1

Compound in test [9]: Cc1nc(Nc2n[nH]c3c2CN(C(=O)N[C@H](CN(C)C)c2ccccc2)C3(C)C)c2sccc2n1
The method, boiled down: as §1

Compound in test [10]: Cc1nc(Nc2ncc(C(=O)Nc3c(C)cccc3Cl)s2)cc(N2CCN(CCO)CC2)n1 [dasatinib]
The procedure, abridged: as §1

Compound in test [11]: Cc1ncc(-c2ccnc(Nc3ccc(S(C)(=O)=O)cc3)n2)n1C(C)C
The procedure, abridged: as §1

Compound in test [12]: Cn1cc(-c2ccc3nnc(C(F)(F)c4ccc5ncccc5c4)n3n2)cn1
The procedure, abridged:
as §1

Compound in test [13]: FC(F)(F)c1ccc(/C=C/c2nc(COc3ccc(CCCCn4ccnn4)cc3)co2)cc1 [mubritinib]
The procedure, abridged: as §1

Compound in test [14]: C[C@@H]1COCCN1C2=NC(=NC(=C2)C3(CC3)S(=O)(=O)C)C4=C5C=CNC5=CC=C4
The method, boiled down: as §1

Compound in test [15]: C[C@H](C1=CC=C(C=C1)C(=O)NC2=C3C=CNC3=NC=C2)N
The procedure, abridged:
as §1

Compound in test [16]: Cc1cc(Nc2cc(N3CCN(C)CC3)nc(Sc3ccc(NC(=O)C4CC4)cc3)n2)n[nH]1 [tozasertib]
The method, boiled down: as §1

Compound in test [17]: Cn1cc(-c2ccc3c(c2)CCN3C(=O)Cc2cccc(C(F)(F)F)c2)c2c(N)ncnc21
The procedure, abridged: as §1

Compound in test [18]: C[C@H](Nc1ncnc2nc[nH]c12)c1cc2cccc(Cl)c2c(=O)n1-c1ccccc1 [duvelisib]
The procedure, abridged: as §1

Compound in test [19]: Cn1cncc1[C@@](N)(c1ccc(Cl)cc1)c1ccc2c(c1)c(-c1cccc(Cl)c1)cc(=O)n2C [tipifarnib]
The method, boiled down: as §1

Compound in test [20]: CS(=O)(=O)c1ccc(-c2cnc(N)c(C(=O)Nc3ccccc3)n2)cc1
The method, boiled down: as §1

For DERPC (UniProt P0CG12), the log2 fold change in [1] is inactive: 0.029; in [2] it was inactive: 0.006; in [3], inactive: -0.113; in test [4], inactive: -0.099; in [5], inactive: 0.07; in [6], inactive: -0.06. Also, the log2 fold change in test [7] is inactive: -0.193; in [8] it was inactive: 0.044; in [9], inactive: -0.04; in test [10] it was inactive: 0.227; in test [11] it was inactive: -0.126; in [12] it was inactive: 0.245. Also, the log2 fold change in test [13] is inactive: 0.049.
Take DEF6 (UniProt Q9H4E7): the log2 fold change was inactive: -0.366 in test [1]; inactive: -0.161 in test [14]; inactive: 0.053 in test [15]; inactive: -0.138 in [16]; inactive: -0.035 in test [4]; inactive: 0.172 in test [5]. For the same target, the results for the log2 fold change in [17], in test [12] and in [13] were inactive: -0.217, inactive: 0 and inactive: -0.214, respectively.
As to DDX52 (UniProt Q9Y2R4), the log2 fold change was inactive: 0.018 in [1]; inactive: 0.315 in [15]; inactive: -0.193 in [18]; inactive: 0.077 in test [3]; inactive: -0.243 in [4]; inactive: 0 in test [5]. The log2 fold change in [6] was inactive: -0.039; in [10] it was inactive: 0.186; in [17] it was inactive: -0.172; in test [12], inactive: -0.155.
As to DIEXF (UniProt Q68CQ4), the log2 fold change in test [15] was inactive: 0.289; in test [18], inactive: 0.012; in [3] it was inactive: 0.258; in test [10], inactive: -0.386; in test [17] it was inactive: -0.204.
For DECR1 (UniProt E5RJD2), the log2 fold change in test [18] is inactive: 0.379; in test [2], inactive: 0.092; in [3], inactive: -0.032; in test [6], inactive: -0.046; in [7], inactive: -0.12; in test [8] it was inactive: -0.352. Also, the log2 fold change in test [9] is inactive: 0.001; in [10] it was inactive: -0.203; in test [11], inactive: 0.082; in test [19] it was inactive: 0.105; in [13] it was inactive: -0.008.
Take DLK1 (UniProt P80370): the log2 fold change was inactive: -0.108 in test [1]; inactive: -0.151 in [14]; inactive: -0.133 in test [15]; inactive: -0.058 in test [3]; inactive: 0.002 in [4]; inactive: -0.012 in [10]. For the same target, the log2 fold change in [17] was inactive: -0.279.
Take DMKN (UniProt Q6E0U4): the log2 fold change was inactive: 0.166 in test [16]; inactive: 0.228 in [5]; inactive: 0.503 in test [6]; inactive: 0 in [8]; inactive: -0.01 in [9]; inactive: -0.086 in test [11]. The log2 fold change is inactive: 0.294 in [12], inactive: 0.088 in [19] and inactive: 0.089 in test [13].
In the case of DHX35 (UniProt Q9H5Z1), the log2 fold change in [14] is inactive: -0.069; in test [8] it was inactive: -0.088; in [9], inactive: 0.005; in test [11], inactive: -0.115.
As to DDX25 (UniProt Q9UHL0), the log2 fold change in [1] was inactive: 0.011; in test [15], inactive: -0.183; in [18], inactive: -0.092; in [16] it was inactive: 0.063; in test [3] it was inactive: 0.008; in [4], inactive: -0.061. Besides, the log2 fold change is inactive: -0.071 in test [6]; inactive: -0.019 in test [8]; inactive: -0.143 in test [9]; inactive: -0.128 in test [10]; inactive: 0.036 in [11]; inactive: 0.185 in [17]. Also, the results for the log2 fold change in [19] and in [13] were inactive: -0.103 and inactive: 0.023, respectively.
As to DENND10 (UniProt Q8TCE6), the log2 fold change is inactive: 0.046 in test [20]; active: 0.298 in [14]; inactive: -0.015 in [15]; inactive: 0.03 in test [3]; inactive: -0.021 in test [5]; inactive: 0.033 in [6]. The log2 fold change was inactive: -0.266 in test [8]; inactive: -0.032 in [9]; inactive: -0.129 in test [10]; inactive: -0.353 in test [11]; inactive: -0.131 in test [17]; inactive: -0.064 in [12]. The log2 fold change was inactive: 0.034 in [19] and inactive: 0.077 in test [13].
Consider DDX46, A0A0C4DG89, for which the log2 fold change in test [14] is inactive: -0.009; in test [8], inactive: 0.151; in test [9], inactive: -0.322; in test [11], inactive: 0.032; in [13] it was inactive: 0.242.
Take DET1 isoform 2 (UniProt Q7L5Y6): the log2 fold change in [1] was inactive: 0.069; in test [15], inactive: 0.028; in test [4] it was inactive: 0.036; in test [5], inactive: 0.304; in test [17], inactive: -0.075; in [12], inactive: 0.046. For the same target, the log2 fold change in [19] was inactive: -0.127; in test [13] it was inactive: 0.121.
Turning to DDX10 (UniProt Q13206), the figures for the log2 fold change in [18], in [3] and in test [10] were inactive: -0.014, inactive: 0.117 and inactive: -0.038, respectively.
In the case of DEAF1 (UniProt O75398), the log2 fold change is inactive: -0.075 in [18], inactive: 0.192 in test [3] and inactive: 0.167 in test [10].
As for DDAH1 (UniProt O94760), the log2 fold change was inactive: -0.153 in test [15]; inactive: 0.071 in test [18]; inactive: -0.031 in [2]; inactive: 0.23 in test [16]; inactive: -0.039 in test [3]; inactive: 0 in test [6]. Besides, the log2 fold change was inactive: 0.073 in test [7]; inactive: -0.057 in [8]; inactive: 0.018 in test [9]; inactive: 0.047 in [10]; inactive: -0.044 in test [11]; inactive: 0.125 in test [17]. In addition, the log2 fold change in test [19] was inactive: -0.092; in test [13], inactive: 0.065.
For the target DENND1A isoform 6 (UniProt Q8TEH3), the log2 fold change in test [1] was inactive: -0.231; in test [4], inactive: 0.374; in test [6] it was inactive: -0.086; in test [19], inactive: -0.113.
As to DHPS (UniProt M0R1T2), the log2 fold change in test [20] is inactive: -0.152; in test [6] it was inactive: 0.081.
DMTF1 (UniProt Q9Y222): the log2 fold change was inactive: -0.063 in test [20]; inactive: 0.106 in [15]; inactive: -0.002 in test [18]; inactive: 0.02 in test [2]; inactive: 0.011 in test [16]; inactive: -0.11 in test [3]. For the same target, the log2 fold change in [7] is inactive: 0.047; in test [10], inactive: -0.056; in test [17], inactive: -0.054; in [19] it was inactive: -0.128.
